For 1 compound, IC50 results are on record in patent US20160000851A1, “Bioactive Botanical Compositions and Uses Thereof” (AKZO NOBEL CHEMICALS INTERNATIONAL B.V., priority 2013, published 2016).

In this experiment the test system is IL-8. Briefly: Inhibition of SDS-induced IL-8 release in human epidermal keratinocytes (ELISA). Type of experiment: cell-based. The following applies: Keratinocyte, 16 h, read-out: Estimated IC50 for inhibition of SDS-induced IL-8 release.

≈ marks a conversion by molar mass, not a printed value.

For orientation: IC50 means the point on the concentration scale where inhibition reaches its midpoint. Take `C[S+]([O-])c1ccc(-c2nc(-c3ccncc3)c(-c3ccc(F)cc3)[nH]2)cc1` (stereo not shown) [SB203580]: the IC50 was approximately 0.7 µg/mL (≈ 1.85 µM).
